# This is a selection; strong and weak results do not stand in their true shares. At the low end of the ranking, values are background and their order means little.
# Amino acid sequences for entries named in this document (tags omitted). A change or cut given only in a name is not applied to a line headed by its entry.
# UniProt Q99607: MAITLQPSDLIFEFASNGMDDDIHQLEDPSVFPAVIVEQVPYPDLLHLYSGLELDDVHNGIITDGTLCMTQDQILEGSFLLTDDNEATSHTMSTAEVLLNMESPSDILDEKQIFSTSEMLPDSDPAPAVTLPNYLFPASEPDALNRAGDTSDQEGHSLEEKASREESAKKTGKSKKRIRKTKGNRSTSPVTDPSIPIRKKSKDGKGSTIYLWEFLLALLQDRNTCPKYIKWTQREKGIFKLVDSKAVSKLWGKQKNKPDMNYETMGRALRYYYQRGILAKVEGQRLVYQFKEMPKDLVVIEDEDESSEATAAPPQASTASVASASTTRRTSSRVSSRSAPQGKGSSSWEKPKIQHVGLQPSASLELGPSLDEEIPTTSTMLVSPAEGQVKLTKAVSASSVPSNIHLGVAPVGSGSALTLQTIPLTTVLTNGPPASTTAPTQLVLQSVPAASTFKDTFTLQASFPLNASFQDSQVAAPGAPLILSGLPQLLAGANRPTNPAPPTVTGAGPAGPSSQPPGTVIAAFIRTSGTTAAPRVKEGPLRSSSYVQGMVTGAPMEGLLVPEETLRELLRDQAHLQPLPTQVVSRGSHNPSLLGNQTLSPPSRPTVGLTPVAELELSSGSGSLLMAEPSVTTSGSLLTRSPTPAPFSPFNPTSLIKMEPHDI
# Biological target: ELF4 (UniProt Q99607)
# Test: DAPPL (digital affinity profiling via proximity ligation, sequencing)
# Settings: 10 mM Tris-HCl pH 7.5, 50 mM NaCl, 1 mM DTT, 4% glycerol, room temperature, 30 min; GST-TFs on glutathione beads, 16-mer random dsDNA library, 0.1% …; high values mean tight binding; double strand, one strand shown; scale: fold enrichment (6-mer frequency, TF over GST control)
row,Sequence,binding signal
1,CTCCGC,1.67
2,GAACCT,1.17
3,CTCCTC,1.47
4,TTCCCC,1.78
5,TTTGGT,1.3
6,CGCCTT,1.54
7,CGAAAC,1.2
8,ATATAC,1.13
9,GGGCCT,1.24
10,GTACTT,1.86
11,AAGTCC,1.19
12,CTTGAT,1.43
13,CGTCTC,1.55
14,TATCAT,1.21
15,TCTCGA,1.51
16,GATATA,1.06
17,TTACTC,1.29
18,ATTTCC,3.62
19,AAAGAC,1.04

# Reprinted from above (three entries):
row,Sequence,binding signal
14,TATCAT,1.21
15,TCTCGA,1.51
16,GATATA,1.06

# Additional records:

row,Sequence,binding signal
1,ATAGAA,1.1
2,TCCCAC,1.34
3,TAATGT,1.11
4,TTACAA,1.12
5,ACCTCG,1.18
6,CCTGTT,1.72
7,AGAATT,1.24
8,CTTAGA,1.09
9,ACTCGC,1.1
10,TCTTGT,1.66
11,GCCCTT,1.13
12,TCGCGC,0.994
13,TACTCT,1.42
14,TCTCTA,1.25
15,CTGATA,1.19
16,TAAACA,1.26
17,TTGGTG,1.3
18,ATGGCT,1.32
19,GCTTCG,1.26
